According to US8383136B2, “Micelle encapsulation of therapeutic agents” (Wisconsin Alumni Research Foundation, priority 2009, dated 2013):
Some results were stated once for a whole list of compounds, not compound by compound.

Experiment: In vitro drug release from PEG-b-PLA micelles (dialysis method)
Assay type: physicochemical
Settings: release of 17-AAG
Procedure: SDMs or MDMs were prepared and characterized as described above. Post micelle preparation each sample was diluted with DD H2O, to yield about 0.10 mg/mL of each drug. A volume of 2.5 mL of the prepared sample was loaded into a 3 mL Slide-A-Lyzer® (Thermo Scientific Inc.) dialysis cassette with a MWCO of 20,000 g/mol. Four cassettes were used in each experiment. The cassettes were placed in 2.0 L of buffer which was changed every 3 hours to ensure sink conditions for drug(s) and polymer. A sample of 100 μL was drawn from each cassette at various sampling time intervals and then replaced with 100 μL of fresh buffer. […] The amount of drug(s) in each sample was quantified by HPLC as described above.
Statistical analysis was performed using one-way ANOVA at 5% significance level combined with Tukey's Multiple Comparison Test or t-test at 5% significance level. Curve-fitting analysis using one phase exponential association was used to calculate the half-life (t1/2) of drug in in vitro drug release experiments. Both analyses were performed using GraphPad Prism version 5.00 for Windows, Graph-Pad Software, San Diego Calif. USA, www.graphpad.com.
SDMs or MDMs were prepared and characterized as described above. Post-micelle preparation, each sample was diluted with DD H2O, to yield samples of about 0.10 mg/mL of each drug. […] The amount of drug(s) in each sample was quantified by reverse phase HPLC.

C=CCNC1=C2C[C@@H](C)C[C@H](OC)[C@H](O)[C@@H](C)/C=C(\C)[C@H](OC(N)=O)[C@@H](OC)/C=C\C=C(/C)C(=O)NC(=CC1=O)C2=O [17-AAG, 17-allylamino-17-demethoxygeldanamycin]
drug released in 6 hours: over 90%
